The data set in a line: Drug concentration in cochlear perilymph by LC-MS/MS. It counts as in vivo, guinea pig. An excerpt: All animal experiments were approved by the Chungnam National University Committee of Animal Experiments (202006A-CNU-085). Ninety eight male albino guinea pigs, each weighing 200 to 250 g, were used in this study. To analyze the residual stability of the HGC thermogel after injection into the middle ear, twenty animals were used to perform micro-computed tomography (CT) and magnetic resonance imaging (MRI) at various injection time points (1, 3, 7, 14, and 21 days) and to perform histopathological analysis. Seventy two animals were used for perilymph sampling at various time points (30 minutes, 90 minutes, 3 hours, 1 day, 3 days, and 7 days) after middle ear injection of the HGC thermogel. Other six animals were used as normal controls for CT and T2-weighed MRI (N=4) and used for histopathological studies after intratympanic injection of saline on day 21 (N=2).
Before surgery, animals were anesthetized by intramuscular injection of alfaxan (15 mg/mL, Careside) and Rumpun (23 mg/mL, Careside). In addition, 0.5 ml of 1% lidocaine was injected subcutaneously into the postauricular area for local anesthesia. The anesthetized animals were placed in a prone position on a thermoregulated heated pad. After incising the retro auricular, the temporal bone was exposed and the round window membrane was visualized with a surgical microscope (Carl Zeiss OPMI f 170 Surgical Tilting Head connected to a Hitachi KP-D50 color digital microscope camera). Each of the HGC-DSP and HGC-DEX thermogel formulations (sample volume=100 μL, drug concentration=5 mg/mL (corresponding to 0.5 wt %)) was administered to the tympanic membrane using a 26 gauge needle. After injection, the needle was carefully removed, dental cement (Durelon™ Carboxylate Luting Cement, 3M) was applied to the area, and the skin incision was sutured. No animals were sacrificed in this series of experiments.
To assess the concentration of DEX in cochlear perilymph, perilymph sampling was performed at various time points (30 minutes, 90 minutes, 3 hours, 1 day, 3 days, and 7 days) after intratympanic injection of the DEX-loaded HGC thermogel. Under anesthesia, the temporal bone was removed, and the tympanic bulla was washed with 10 mL of saline. Small apical cochleostomy was performed using a sharp pick, and perilymph was collected in hand-held graduated glass capillary tubes (IntraMAPK micropipettes) marked at every 4 μl volume. Cochlear fluid and DEX standard samples were diluted 1:11 with artificial perilymph, and each mixture was diluted again 1:3 with 50% MeOH. All samples were analyzed using an operator system (QTRAP 6500) with a UHPLC/Tandem mass spectrometer (QTRAP 6500 Low Mass BL210251506) to measure the DEX concentration in the perilymph by LC-MS/MS. […]

Molecules are shown by their SMILES.

Turning to `C[C@@H]1C[C@H]2[C@@H]3CCC4=CC(=O)C=C[C@]4(C)[C@@]3(F)[C@@H](O)C[C@]2(C)[C@@]1(O)C(=O)COP(=O)([O-])[O-].[Na+].[Na+]` [DSP, DEX phosphate disodium salt], the “initial DEX concentration in perilymph compared between groups” value (30 minutes after administration) is given as “highest initial concentration”. In addition, the “DEX concentration in perilymph” value is, setting by setting: (90 minutes after administration) “decreased”; (after 3 hours) “not detected”. In addition, the “DEX concentration in perilymph fluid” value (starting 30 minutes after intratympanic injection, drug 0.5 wt %) is given as “significant DEX concentrations were detected”.

For the origin of these results see patent US20250135009A1, “INTRATYMPANIC DRUG CONTROLLED RELEASE-TYPE FORMULATION COMPRISING N-ACYLATED GLYCOL CHITOSAN” (The Industry & Academic Cooperation in Chungnam National …, priority 2021, published 2025).
